The values below come from the supplement of paper PMC10849652.

Sequences of proteins named here, by UniProt entry; tags and fusion partners are left off. A change or cut given only in a name is not applied to a line headed by its entry.
UniProt Q5VWP2: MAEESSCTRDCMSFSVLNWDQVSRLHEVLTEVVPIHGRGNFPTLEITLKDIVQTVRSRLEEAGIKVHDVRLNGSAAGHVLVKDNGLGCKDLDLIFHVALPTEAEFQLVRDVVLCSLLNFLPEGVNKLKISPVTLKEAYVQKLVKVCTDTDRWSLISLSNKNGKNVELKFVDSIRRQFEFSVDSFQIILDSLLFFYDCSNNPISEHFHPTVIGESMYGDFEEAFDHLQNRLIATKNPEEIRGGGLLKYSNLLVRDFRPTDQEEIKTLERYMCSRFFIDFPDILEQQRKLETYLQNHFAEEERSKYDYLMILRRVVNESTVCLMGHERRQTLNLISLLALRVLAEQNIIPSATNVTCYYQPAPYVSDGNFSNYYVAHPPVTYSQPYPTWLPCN
UniProt Q13428: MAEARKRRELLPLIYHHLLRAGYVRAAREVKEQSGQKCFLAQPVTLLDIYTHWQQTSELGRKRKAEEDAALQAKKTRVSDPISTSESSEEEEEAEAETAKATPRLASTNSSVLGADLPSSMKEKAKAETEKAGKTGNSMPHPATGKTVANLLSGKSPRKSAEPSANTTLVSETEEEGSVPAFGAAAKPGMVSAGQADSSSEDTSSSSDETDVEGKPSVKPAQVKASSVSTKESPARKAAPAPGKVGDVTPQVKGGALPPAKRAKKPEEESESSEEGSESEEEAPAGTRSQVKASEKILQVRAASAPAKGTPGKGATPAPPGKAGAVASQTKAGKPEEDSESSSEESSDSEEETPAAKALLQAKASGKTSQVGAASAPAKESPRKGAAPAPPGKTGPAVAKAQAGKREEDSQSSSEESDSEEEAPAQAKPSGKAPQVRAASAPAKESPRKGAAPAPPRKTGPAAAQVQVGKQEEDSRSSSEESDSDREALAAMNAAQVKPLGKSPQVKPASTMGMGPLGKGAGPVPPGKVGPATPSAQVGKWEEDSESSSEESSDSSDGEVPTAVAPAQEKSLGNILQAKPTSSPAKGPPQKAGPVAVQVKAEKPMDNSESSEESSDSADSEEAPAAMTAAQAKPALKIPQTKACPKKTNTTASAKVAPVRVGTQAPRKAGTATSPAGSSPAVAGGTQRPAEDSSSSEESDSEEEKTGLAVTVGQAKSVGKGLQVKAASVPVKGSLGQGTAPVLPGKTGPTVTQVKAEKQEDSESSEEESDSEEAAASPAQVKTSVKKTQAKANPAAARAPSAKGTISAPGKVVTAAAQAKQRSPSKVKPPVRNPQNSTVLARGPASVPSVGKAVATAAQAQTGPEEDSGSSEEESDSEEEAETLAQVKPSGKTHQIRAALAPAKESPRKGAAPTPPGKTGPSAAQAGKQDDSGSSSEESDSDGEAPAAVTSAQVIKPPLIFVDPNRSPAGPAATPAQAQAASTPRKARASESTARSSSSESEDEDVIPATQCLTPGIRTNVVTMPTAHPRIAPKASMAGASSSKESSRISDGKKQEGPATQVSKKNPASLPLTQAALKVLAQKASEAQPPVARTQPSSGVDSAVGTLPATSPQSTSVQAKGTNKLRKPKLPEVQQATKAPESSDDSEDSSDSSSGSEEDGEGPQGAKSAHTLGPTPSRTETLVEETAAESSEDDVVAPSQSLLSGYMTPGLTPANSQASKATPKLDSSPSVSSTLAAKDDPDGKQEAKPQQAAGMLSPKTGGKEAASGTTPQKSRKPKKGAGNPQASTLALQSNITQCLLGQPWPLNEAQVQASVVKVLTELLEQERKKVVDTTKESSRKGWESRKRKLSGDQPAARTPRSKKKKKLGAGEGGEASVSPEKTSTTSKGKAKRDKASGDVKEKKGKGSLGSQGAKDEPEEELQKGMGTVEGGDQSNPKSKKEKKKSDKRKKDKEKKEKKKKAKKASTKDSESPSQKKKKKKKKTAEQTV
UniProt P10646, whole entry, looked up: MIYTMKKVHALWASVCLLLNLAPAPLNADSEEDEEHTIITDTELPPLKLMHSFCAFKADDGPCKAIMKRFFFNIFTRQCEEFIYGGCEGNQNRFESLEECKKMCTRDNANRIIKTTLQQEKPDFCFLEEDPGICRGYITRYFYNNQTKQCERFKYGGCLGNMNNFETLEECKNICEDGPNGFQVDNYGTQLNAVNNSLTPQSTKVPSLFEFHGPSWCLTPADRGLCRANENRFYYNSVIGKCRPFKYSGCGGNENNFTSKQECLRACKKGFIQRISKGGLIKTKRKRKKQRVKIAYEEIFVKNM
UniProt Q5QJ74: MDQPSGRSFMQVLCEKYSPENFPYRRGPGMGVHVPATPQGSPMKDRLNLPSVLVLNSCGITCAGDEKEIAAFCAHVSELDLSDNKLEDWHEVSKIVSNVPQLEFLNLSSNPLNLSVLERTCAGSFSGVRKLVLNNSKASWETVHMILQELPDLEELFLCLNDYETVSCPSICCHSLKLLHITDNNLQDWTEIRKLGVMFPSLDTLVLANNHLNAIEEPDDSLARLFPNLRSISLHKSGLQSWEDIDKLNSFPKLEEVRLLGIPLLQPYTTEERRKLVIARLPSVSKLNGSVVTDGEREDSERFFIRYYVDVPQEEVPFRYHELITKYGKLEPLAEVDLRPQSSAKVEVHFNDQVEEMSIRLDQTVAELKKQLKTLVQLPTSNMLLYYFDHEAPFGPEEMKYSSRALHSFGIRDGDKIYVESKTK
UniProt Q9UHD2: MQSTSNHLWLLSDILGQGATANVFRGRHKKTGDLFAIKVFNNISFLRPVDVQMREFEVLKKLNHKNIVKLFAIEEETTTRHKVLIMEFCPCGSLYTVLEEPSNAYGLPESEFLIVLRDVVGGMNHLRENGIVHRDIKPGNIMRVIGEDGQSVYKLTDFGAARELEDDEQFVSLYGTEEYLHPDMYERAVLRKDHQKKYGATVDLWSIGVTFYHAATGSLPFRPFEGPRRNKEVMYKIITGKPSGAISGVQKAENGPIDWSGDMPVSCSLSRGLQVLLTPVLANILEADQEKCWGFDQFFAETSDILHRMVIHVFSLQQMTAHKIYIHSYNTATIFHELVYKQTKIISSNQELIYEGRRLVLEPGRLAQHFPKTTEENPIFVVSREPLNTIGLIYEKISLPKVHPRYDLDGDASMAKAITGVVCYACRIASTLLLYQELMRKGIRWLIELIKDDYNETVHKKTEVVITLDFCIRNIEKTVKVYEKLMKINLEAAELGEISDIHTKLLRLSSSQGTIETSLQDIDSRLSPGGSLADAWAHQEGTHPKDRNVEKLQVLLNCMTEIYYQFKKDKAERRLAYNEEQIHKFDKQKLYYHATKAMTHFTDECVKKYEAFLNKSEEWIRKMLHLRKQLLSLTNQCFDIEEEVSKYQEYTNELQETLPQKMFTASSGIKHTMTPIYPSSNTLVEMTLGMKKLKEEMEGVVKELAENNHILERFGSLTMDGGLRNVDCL
UniProt Q9Y4I5: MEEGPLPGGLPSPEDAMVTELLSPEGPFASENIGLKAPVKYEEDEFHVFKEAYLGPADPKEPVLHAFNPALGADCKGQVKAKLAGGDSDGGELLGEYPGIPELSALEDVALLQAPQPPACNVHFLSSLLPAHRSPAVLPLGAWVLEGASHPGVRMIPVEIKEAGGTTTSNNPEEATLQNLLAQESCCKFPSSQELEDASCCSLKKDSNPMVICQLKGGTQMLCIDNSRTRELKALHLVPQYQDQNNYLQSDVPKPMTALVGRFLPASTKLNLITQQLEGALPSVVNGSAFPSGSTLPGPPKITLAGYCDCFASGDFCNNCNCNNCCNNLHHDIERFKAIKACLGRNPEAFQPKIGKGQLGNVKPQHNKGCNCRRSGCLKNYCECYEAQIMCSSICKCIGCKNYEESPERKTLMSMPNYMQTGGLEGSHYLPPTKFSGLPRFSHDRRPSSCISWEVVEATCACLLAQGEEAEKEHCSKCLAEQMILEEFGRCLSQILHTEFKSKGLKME
UniProt Q9UL54: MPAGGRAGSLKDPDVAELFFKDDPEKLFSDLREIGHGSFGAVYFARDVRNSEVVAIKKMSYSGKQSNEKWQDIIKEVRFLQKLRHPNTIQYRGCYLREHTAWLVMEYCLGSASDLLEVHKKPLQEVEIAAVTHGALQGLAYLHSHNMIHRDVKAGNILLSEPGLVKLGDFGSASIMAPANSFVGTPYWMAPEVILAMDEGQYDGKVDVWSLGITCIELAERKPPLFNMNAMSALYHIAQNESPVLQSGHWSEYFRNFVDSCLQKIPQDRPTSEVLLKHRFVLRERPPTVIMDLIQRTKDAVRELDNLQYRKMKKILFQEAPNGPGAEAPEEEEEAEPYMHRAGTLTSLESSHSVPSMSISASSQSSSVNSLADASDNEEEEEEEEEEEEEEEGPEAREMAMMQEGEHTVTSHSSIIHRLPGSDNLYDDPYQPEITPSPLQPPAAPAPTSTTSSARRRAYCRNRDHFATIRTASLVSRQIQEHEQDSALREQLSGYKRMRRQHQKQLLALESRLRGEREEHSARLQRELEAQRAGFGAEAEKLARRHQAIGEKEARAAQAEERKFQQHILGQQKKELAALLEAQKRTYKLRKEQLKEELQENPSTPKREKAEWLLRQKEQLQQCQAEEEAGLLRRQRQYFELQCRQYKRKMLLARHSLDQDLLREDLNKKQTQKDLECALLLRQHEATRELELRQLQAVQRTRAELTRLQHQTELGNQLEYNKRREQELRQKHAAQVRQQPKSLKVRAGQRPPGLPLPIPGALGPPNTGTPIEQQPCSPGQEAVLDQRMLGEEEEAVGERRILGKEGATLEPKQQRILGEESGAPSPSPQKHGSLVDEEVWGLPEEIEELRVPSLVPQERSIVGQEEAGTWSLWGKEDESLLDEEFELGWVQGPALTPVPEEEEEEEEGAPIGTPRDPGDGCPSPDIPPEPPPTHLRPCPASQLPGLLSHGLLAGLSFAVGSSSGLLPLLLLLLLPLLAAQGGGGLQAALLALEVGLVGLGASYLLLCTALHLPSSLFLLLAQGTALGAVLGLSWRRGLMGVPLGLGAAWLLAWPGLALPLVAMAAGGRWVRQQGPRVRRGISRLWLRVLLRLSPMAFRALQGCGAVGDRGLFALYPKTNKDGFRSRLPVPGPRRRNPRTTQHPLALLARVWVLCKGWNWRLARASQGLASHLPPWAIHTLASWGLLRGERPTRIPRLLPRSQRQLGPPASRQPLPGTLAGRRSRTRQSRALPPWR
UniProt Q13569: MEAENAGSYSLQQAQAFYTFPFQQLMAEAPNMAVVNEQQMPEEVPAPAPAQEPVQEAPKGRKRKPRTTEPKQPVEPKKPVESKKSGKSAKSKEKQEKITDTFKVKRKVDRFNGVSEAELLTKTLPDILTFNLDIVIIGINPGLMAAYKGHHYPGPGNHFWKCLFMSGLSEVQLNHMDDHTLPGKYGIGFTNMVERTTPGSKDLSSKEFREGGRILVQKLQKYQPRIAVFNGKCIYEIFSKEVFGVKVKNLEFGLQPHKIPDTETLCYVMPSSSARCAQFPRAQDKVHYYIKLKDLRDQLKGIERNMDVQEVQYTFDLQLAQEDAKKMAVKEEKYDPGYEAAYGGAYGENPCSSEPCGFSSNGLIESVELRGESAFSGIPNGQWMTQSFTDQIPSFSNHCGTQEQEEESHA

This is one part of the list.

What all share (test): log2 fold change, soluble protein after heating vs DMSO (PISA); higher = thermal stabilisation; K562 lysate, 10 uM; active = over 0.2 and 3.5 SD of the protein, either way, in both replicates (recomputed)
Compound in experiment [1]: CN1CC[C@H](c2c(O)cc(O)c3c(=O)cc(-c4ccccc4Cl)oc23)[C@H](O)C1 [alvocidib]
Put shortly:
(§1)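 Log-two fold change in thermal stability relative to solvent controls is reported from duplicates. For each sample, crude K562 extract from dounce-homogenised pellets in PBS pH 7.4 with 1 mM MgCl2, at 1 mg/mL protein, was treated with 10 μM compound for 30 min. Aliquots heated for 3 min across 48°C-58°C were pooled, brought to 0.5% NP-40 at 4°C and cleared at 21,000xg for 90 min. The supernatant was quantified by TMTpro 16plex LC-MS/MS with channel sums equalised.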

Compound in experiment [2]: CN1CCc2c(c3ccccc3n2Cc2ccc(C(=O)NO)cc2)C1 [Tubastatin A]
The method in brief:
as §1

Compound in experiment [3]: CNC(=O)C1=CC=CC=C1NC2=NC(=NC=C2Cl)NC3=C(C=C(C=C3)N4CCOCC4)OC
The method in brief:
as §1

Compound in experiment [4]: CNC(=O)c1ccc(Nc2ncc(C(F)(F)F)c(NCc3nccnc3N(C)S(C)(=O)=O)n2)cc1 [defactinib]
The method in brief:
as §1

Compound in experiment [5]: COC(=O)N[C@@H](C)CNc1nccc(-c2cn(C(C)C)nc2-c2cc(Cl)cc(NS(C)(=O)=O)c2F)n1 [encorafenib]
Put shortly:
as §1

Compound in experiment [6]: COC(=O)[C@H](CCSC)NC(=O)C1=C(C=C(C=C1)NC[C@H](CS)N)C2=CC=CC=C2
The method in brief: as §1

Compound in experiment [7]: COc1cc(Nc2ncc3c(n2)-c2ccc(Cl)cc2C(c2c(F)cccc2OC)=NC3)ccc1C(=O)O [alisertib]
The method in brief: as §1

Compound in experiment [8]: COc1cc2nc(-c3cc(F)ccc3O)nc(N[C@@H]3CNC[C@H]3C(C)(C)O)c2cc1OC
Put shortly: as §1

Compound in experiment [9]: COc1cc2ncnc(Nc3ccc(F)c(Cl)c3)c2cc1OCCCN1CCOCC1 [gefitinib]
The method in brief: as §1

Compound in experiment [10]: CS(=O)(=O)CCNCc1ccc(-c2ccc3ncnc(Nc4ccc(OCc5cccc(F)c5)c(Cl)c4)c3c2)o1 [lapatinib]
Put shortly: as §1

Compound in experiment [11]: CS(=O)(=O)N1CCN(Cc2cc3nc(-c4cccc5[nH]ncc45)nc(N4CCOCC4)c3s2)CC1 [pictilisib]
The method in brief: as §1

Compound in experiment [12]: C[C@@H](Oc1cc(-c2cnn(C3CCNCC3)c2)cnc1N)c1c(Cl)ccc(F)c1Cl [crizotinib]
The method in brief:
as §1

Compound in experiment [13]: C[C@H](C1=CC=C(C=C1)C(=O)NC2=C3C=CNC3=NC=C2)N
The method in brief: as §1

Compound in experiment [14]: Cc1cc(Nc2cc(CN3CCOCC3)c3nc(C)c(Cc4ccc(Cl)cc4F)n3n2)n[nH]1 [gandotinib]
Put shortly: as §1

Compound in experiment [15]: Cc1cc(Nc2cc(N3CCN(C)CC3)nc(Sc3ccc(NC(=O)C4CC4)cc3)n2)n[nH]1 [tozasertib]
Put shortly:
as §1

Compound in experiment [16]: Cc1ccc(-n2nc(C(C)(C)C)cc2NC(=O)Nc2ccc(OCCN3CCOCC3)c3ccccc23)cc1 [doramapimod]
The method in brief:
as §1

Compound in experiment [17]: Cc1ccc(NC(=O)c2ccc(CN3CC[C@H](N(C)C)C3)c(C(F)(F)F)c2)cc1Nc1nccc(-c2cncnc2)n1 [bafetinib]
The method in brief:
as §1

Compound in experiment [18]: Cc1cccc(CC(=O)N2CCc3c2ccc(-c2cn(C)c4ncnc(N)c24)c3F)n1
Put shortly: as §1

Compound in experiment [19]: CNc1nc(-c2ccc3c(N)n[nH]c3c2)cc(N2C[C@@H](C(=O)NC3CCCCC3)CC[C@H]2C)n1
The method in brief: as §1

Compound in experiment [20]: C[C@H](Nc1ncnc2nc[nH]c12)c1cc2cccc(Cl)c2c(=O)n1-c1ccccc1 [duvelisib]
The method in brief:
as §1

With TENT5C (UniProt Q5VWP2), the log2 fold change in [1] is inactive: 0.007; in experiment [2], inactive: 0.027; in experiment [3] it was inactive: -0.003; in experiment [4], inactive: -0.006; in experiment [5], inactive: -0.077; in experiment [6], inactive: -0.018. Moreover, the log2 fold change in experiment [7] was inactive: 0.035; in experiment [8], inactive: 0.041; in [9] it was inactive: -0.031; in experiment [10], inactive: 0.094; in experiment [11], inactive: 0.03; in experiment [12], inactive: -0.091. Further, the log2 fold change in experiment [13] was inactive: 0.113; in [14] it was inactive: -0.02; in experiment [15], inactive: 0.017; in experiment [16] it was inactive: 0.098; in experiment [17], inactive: -0.027; in experiment [18] it was inactive: -0.135.
Consider TCOF1 isoform 3 (UniProt Q13428), for which the log2 fold change in experiment [1] was inactive: 0.214; in experiment [3], inactive: 0.149; in [8], inactive: 0.239; in experiment [10], inactive: -0.45; in experiment [11], inactive: -0.063; in experiment [12], inactive: -0.068. Besides, the log2 fold change was inactive: -0.033 in experiment [13]; inactive: 0.085 in experiment [14]; inactive: -0.021 in experiment [16]; inactive: -0.073 in experiment [17]; inactive: -0.023 in [18].
As to TFPI (UniProt P10646), the log2 fold change in [1] is inactive: 0.245; in [2] it was inactive: -0.012; in experiment [3], inactive: 0.036; in [4] it was inactive: 0.056; in [5], inactive: 0.072; in experiment [6], inactive: -0.017. Besides, the log2 fold change was inactive: -0.003 in [7]; inactive: -0.128 in experiment [8]; inactive: 0.061 in [9]; inactive: -0.035 in [10]; inactive: 0.009 in experiment [11]; inactive: 0.036 in [12]. Besides, the log2 fold change is active: 0.625 in experiment [13]; inactive: -0.202 in experiment [14]; inactive: -0.01 in experiment [15]; inactive: 0.082 in experiment [16]; inactive: 0.149 in experiment [17]; inactive: -0.301 in [18].
Regarding TBCEL (UniProt Q5QJ74), the log2 fold change in experiment [1] was inactive: -0.127; in experiment [2], inactive: 0.055; in experiment [3], inactive: -0.082; in [4] it was inactive: -0.059; in experiment [19], inactive: 0.013; in experiment [7], inactive: 0.136. The log2 fold change in [9] is inactive: -0.206; in experiment [11] it was inactive: 0.469; in experiment [13], inactive: 0.267; in [20] it was inactive: -0.029; in [14], inactive: -0.14; in experiment [17], inactive: 0.478. Moreover, the log2 fold change in [18] was inactive: 0.404.
As for TBK1 (UniProt Q9UHD2), the log2 fold change in experiment [2] is inactive: -0.16; in [3], active: 0.528; in experiment [4], inactive: 0.328; in experiment [19] it was inactive: -0.035; in [5] it was inactive: 0.014; in experiment [6], inactive: -0.293. Also, the log2 fold change in experiment [7] was inactive: 0.039; in [8], inactive: -0.007; in experiment [9] it was inactive: -0.032; in experiment [10], inactive: 0.042; in experiment [11], inactive: 0.054; in experiment [12], active: 0.469. The log2 fold change in [13] is inactive: -0.059; in experiment [20], inactive: -0.046; in experiment [14] it was inactive: 0.342; in experiment [15], inactive: 0.314; in experiment [16], inactive: -0.024; in [17] it was inactive: 0.007. Moreover, the log2 fold change in experiment [18] was inactive: -0.044.
As to TESMIN (UniProt Q9Y4I5), the log2 fold change in experiment [1] was inactive: 0.076; in [2], inactive: 0.038; in experiment [3] it was inactive: -0.004; in experiment [4], inactive: -0.07; in experiment [19] it was inactive: 0.151; in experiment [5] it was inactive: -0.056. The log2 fold change in experiment [6] was inactive: 0.055; in experiment [12], inactive: -0.047; in [13], inactive: 0.21; in experiment [20], inactive: -0.19; in [14] it was inactive: -0.148; in experiment [15], inactive: 0.049. The results for the log2 fold change in experiment [16] and in experiment [18] were inactive: 0.011 and inactive: 0.138, respectively.
Take TAOK2 (UniProt Q9UL54): the log2 fold change is inactive: -0.053 in [1]; inactive: 0.046 in experiment [2]; inactive: -0.001 in experiment [4]; inactive: -0.015 in [19]; inactive: -0.033 in [5]; inactive: 0.055 in experiment [6]. The log2 fold change in experiment [7] is inactive: 0.02; in experiment [8], inactive: 0.02; in [9], inactive: -0.009; in experiment [10], inactive: -0.049; in experiment [11], inactive: -0.054; in [12] it was inactive: -0.081. Besides, the log2 fold change in experiment [13] was inactive: -0.136; in [20], inactive: -0.002; in [14], inactive: 0.07; in [15] it was inactive: -0.026; in experiment [16], inactive: 0.046; in experiment [17], inactive: -0.004. The log2 fold change in experiment [18] is inactive: 0.261.
With TDG (UniProt Q13569), the log2 fold change in experiment [1] is inactive: -0.041; in [2], inactive: -0.183; in experiment [4], inactive: 0.04; in experiment [19] it was inactive: -0.059; in [5] it was inactive: -0.329; in experiment [6] it was inactive: -0.041. Moreover, the log2 fold change is inactive: 0.007 in [7]; inactive: -0.057 in [9]; inactive: -0.109 in [11]; inactive: 0.104 in experiment [12]; inactive: -0.025 in experiment [13]; inactive: -0.012 in experiment [20]. The log2 fold change in [14] was inactive: 0.015; in [15] it was inactive: 0.109; in experiment [16], inactive: -0.033; in experiment [17] it was inactive: -0.042; in experiment [18], inactive: 0.065.
